The series addresses T1, mini-vRNAP (N4 virion RNA polymerase central domain) (Bacteriophage N4) (UniProt Q859P9).
T1 sequence: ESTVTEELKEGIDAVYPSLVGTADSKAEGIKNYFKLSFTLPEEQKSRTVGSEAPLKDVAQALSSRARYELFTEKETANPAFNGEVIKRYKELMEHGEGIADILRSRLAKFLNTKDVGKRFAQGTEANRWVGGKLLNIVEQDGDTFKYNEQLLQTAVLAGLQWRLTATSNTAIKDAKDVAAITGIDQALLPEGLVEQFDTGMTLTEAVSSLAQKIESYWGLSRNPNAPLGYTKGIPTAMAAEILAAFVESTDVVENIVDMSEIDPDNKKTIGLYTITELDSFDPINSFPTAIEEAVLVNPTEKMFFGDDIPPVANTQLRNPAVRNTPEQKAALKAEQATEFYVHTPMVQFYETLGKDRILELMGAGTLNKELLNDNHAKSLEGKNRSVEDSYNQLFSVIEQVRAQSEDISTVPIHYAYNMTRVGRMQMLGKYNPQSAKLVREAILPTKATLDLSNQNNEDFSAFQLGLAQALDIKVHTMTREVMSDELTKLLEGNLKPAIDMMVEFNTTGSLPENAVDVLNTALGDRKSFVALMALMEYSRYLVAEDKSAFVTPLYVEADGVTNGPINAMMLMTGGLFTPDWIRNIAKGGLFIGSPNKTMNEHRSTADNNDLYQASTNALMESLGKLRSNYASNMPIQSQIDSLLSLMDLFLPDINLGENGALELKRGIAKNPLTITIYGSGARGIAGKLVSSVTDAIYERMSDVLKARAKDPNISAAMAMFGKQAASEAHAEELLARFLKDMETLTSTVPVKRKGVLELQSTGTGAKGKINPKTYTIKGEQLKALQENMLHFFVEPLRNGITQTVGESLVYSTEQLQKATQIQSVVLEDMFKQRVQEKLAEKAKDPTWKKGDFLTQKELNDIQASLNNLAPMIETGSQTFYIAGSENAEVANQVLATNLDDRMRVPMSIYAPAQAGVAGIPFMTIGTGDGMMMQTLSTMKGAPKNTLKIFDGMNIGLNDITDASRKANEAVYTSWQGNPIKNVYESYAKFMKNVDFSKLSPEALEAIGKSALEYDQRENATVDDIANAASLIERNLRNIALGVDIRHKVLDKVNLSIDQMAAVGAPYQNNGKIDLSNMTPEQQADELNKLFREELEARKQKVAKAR
Description: activity assay. As to conditions: in vitro transcription; digoxigenin-11-UTP and biotin-16-UTP give RNA yields comparable to UTP; purified recombinant protein; protein details: N-terminal His6 (pBAD B), TALON and MonoQ; single-stranded DNA.

Protein sequences can lack the tags named with them.

For the sequence “TCCCAGACAAAAGGTTAAGATTTCATACAGGATTGGATGCATTACTTCATCCAAAAGAAGCGGAGCTTC [control template]”, the “activity on this sequence” value is “active”.

Source of the values: patent US20030096349, “N4 virion single-stranded DNA dependent RNA polymerase” (The University of Chicago, published 2003).
